From article PMC2671147 come the findings set out here.

By UniProt entry, the sequences of proteins in these tests, tags left out.
UniProt P29338: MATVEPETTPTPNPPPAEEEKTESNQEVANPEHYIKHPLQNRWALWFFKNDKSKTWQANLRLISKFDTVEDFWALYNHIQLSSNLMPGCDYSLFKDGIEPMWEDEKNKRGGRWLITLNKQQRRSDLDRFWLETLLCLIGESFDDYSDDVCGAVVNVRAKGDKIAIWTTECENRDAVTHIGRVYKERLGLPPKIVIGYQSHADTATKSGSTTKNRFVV
UniProt P29562: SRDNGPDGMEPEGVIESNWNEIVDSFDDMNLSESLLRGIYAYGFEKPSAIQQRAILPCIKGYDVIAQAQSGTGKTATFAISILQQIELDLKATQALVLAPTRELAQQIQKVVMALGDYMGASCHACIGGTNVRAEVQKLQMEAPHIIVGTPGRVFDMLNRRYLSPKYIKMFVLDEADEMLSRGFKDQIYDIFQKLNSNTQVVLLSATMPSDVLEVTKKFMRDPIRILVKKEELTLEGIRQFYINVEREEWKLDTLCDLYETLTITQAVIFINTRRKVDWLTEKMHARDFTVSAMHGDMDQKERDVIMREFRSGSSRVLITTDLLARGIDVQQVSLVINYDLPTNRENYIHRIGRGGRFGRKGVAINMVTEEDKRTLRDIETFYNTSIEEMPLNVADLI

No constants are given. Whether binding was seen depends on the method and setting. Binding seen in cells or lysates may run through a third protein. Some binding calls cover weakened binding; strength is not graded here.

This assay has as its target eukaryotic initiation factor (eIF) 4E, from ribosomal salt wash (UniProt P29338). As to the kind of experiment: pull-down; m7GTP-Sepharose affinity purification of eIF4E from RSW incubated with 0.5% DMSO or 50 uM silvestrol for 1 h at 30°C; beads 2 h at 4°C, washed with LCB (20 mM HEPES 7.5, 100 mM KCl, 0.2 mM EDTA) and LCB + 200 uM GDP, eluted with 200 uM m7GTP; Western blot.

“eukaryotic initiation factor (eIF) 4A, from ribosomal salt wash (from UniProt P29562 1-398)”: the binding result is recorded as “binds”.
